Measured values published in the supplement of paper PMC11006884.
The targets with a hit were mostly taken out for another list; the other results follow. Single values of this set are uncertain. Only a part is listed here, and it is no random draw.

Protein sequences, listed by entry. Tags and fused reporters are not part of them. Lines headed by an entry give the natural chain unless they say otherwise; changes in a name come on top.
UniProt Q8IWA0: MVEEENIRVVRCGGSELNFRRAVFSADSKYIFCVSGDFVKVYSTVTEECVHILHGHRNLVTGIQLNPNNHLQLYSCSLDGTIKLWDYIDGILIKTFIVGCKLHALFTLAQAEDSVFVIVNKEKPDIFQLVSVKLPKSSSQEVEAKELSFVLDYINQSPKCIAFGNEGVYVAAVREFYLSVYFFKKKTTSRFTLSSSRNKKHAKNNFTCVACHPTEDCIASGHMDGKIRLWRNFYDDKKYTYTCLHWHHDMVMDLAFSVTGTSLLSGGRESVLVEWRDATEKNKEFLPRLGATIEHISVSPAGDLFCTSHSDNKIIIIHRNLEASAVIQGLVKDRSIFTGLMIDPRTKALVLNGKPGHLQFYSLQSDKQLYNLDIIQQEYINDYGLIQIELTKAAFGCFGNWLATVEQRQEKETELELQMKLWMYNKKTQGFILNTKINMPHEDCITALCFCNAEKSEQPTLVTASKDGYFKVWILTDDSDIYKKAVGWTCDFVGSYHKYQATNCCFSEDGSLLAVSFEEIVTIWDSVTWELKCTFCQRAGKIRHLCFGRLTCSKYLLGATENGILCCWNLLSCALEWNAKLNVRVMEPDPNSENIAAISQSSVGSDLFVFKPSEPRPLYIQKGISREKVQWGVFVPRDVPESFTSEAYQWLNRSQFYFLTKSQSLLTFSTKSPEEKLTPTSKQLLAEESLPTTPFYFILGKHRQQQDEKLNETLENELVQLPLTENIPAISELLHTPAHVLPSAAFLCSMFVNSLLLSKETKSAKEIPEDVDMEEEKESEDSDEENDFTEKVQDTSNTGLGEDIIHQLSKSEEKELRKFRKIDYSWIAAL
UniProt Q8IW35: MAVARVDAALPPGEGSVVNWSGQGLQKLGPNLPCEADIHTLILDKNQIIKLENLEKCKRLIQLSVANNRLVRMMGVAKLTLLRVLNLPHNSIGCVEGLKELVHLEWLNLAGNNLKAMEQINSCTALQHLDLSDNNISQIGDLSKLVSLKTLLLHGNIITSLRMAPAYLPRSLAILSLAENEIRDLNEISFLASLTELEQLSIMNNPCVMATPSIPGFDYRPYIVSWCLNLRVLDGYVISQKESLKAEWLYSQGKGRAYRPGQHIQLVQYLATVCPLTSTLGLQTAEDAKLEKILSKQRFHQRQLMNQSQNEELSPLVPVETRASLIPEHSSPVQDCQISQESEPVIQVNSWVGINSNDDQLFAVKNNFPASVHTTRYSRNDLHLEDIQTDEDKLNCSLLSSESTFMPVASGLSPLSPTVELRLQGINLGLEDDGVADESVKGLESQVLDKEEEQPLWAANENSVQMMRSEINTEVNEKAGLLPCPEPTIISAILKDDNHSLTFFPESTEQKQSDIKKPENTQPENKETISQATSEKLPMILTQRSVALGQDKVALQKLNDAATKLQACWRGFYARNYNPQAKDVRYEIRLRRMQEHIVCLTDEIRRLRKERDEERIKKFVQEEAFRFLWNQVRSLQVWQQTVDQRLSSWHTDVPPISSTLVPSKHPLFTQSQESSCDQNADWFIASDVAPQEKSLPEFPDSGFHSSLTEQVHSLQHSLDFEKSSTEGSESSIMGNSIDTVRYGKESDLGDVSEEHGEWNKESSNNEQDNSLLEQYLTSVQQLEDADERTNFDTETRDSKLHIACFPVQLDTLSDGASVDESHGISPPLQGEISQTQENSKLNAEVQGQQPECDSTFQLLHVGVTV
UniProt Q7RTV0, whole entry, looked up: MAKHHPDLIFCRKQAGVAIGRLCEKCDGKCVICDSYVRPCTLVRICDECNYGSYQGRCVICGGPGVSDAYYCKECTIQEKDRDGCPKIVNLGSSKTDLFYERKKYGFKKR
UniProt Q7Z2E3: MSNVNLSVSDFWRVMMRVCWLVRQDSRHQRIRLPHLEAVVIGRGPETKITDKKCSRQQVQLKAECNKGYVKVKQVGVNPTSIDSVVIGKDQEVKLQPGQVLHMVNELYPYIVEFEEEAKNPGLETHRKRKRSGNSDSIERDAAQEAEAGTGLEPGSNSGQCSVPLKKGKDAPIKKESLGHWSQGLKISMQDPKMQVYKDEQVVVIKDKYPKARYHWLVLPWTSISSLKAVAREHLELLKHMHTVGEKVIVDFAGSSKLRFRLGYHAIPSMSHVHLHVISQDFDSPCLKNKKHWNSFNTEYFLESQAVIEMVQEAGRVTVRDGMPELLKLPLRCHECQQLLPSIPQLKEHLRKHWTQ
UniProt Q7Z6Z7, whole entry, looked up: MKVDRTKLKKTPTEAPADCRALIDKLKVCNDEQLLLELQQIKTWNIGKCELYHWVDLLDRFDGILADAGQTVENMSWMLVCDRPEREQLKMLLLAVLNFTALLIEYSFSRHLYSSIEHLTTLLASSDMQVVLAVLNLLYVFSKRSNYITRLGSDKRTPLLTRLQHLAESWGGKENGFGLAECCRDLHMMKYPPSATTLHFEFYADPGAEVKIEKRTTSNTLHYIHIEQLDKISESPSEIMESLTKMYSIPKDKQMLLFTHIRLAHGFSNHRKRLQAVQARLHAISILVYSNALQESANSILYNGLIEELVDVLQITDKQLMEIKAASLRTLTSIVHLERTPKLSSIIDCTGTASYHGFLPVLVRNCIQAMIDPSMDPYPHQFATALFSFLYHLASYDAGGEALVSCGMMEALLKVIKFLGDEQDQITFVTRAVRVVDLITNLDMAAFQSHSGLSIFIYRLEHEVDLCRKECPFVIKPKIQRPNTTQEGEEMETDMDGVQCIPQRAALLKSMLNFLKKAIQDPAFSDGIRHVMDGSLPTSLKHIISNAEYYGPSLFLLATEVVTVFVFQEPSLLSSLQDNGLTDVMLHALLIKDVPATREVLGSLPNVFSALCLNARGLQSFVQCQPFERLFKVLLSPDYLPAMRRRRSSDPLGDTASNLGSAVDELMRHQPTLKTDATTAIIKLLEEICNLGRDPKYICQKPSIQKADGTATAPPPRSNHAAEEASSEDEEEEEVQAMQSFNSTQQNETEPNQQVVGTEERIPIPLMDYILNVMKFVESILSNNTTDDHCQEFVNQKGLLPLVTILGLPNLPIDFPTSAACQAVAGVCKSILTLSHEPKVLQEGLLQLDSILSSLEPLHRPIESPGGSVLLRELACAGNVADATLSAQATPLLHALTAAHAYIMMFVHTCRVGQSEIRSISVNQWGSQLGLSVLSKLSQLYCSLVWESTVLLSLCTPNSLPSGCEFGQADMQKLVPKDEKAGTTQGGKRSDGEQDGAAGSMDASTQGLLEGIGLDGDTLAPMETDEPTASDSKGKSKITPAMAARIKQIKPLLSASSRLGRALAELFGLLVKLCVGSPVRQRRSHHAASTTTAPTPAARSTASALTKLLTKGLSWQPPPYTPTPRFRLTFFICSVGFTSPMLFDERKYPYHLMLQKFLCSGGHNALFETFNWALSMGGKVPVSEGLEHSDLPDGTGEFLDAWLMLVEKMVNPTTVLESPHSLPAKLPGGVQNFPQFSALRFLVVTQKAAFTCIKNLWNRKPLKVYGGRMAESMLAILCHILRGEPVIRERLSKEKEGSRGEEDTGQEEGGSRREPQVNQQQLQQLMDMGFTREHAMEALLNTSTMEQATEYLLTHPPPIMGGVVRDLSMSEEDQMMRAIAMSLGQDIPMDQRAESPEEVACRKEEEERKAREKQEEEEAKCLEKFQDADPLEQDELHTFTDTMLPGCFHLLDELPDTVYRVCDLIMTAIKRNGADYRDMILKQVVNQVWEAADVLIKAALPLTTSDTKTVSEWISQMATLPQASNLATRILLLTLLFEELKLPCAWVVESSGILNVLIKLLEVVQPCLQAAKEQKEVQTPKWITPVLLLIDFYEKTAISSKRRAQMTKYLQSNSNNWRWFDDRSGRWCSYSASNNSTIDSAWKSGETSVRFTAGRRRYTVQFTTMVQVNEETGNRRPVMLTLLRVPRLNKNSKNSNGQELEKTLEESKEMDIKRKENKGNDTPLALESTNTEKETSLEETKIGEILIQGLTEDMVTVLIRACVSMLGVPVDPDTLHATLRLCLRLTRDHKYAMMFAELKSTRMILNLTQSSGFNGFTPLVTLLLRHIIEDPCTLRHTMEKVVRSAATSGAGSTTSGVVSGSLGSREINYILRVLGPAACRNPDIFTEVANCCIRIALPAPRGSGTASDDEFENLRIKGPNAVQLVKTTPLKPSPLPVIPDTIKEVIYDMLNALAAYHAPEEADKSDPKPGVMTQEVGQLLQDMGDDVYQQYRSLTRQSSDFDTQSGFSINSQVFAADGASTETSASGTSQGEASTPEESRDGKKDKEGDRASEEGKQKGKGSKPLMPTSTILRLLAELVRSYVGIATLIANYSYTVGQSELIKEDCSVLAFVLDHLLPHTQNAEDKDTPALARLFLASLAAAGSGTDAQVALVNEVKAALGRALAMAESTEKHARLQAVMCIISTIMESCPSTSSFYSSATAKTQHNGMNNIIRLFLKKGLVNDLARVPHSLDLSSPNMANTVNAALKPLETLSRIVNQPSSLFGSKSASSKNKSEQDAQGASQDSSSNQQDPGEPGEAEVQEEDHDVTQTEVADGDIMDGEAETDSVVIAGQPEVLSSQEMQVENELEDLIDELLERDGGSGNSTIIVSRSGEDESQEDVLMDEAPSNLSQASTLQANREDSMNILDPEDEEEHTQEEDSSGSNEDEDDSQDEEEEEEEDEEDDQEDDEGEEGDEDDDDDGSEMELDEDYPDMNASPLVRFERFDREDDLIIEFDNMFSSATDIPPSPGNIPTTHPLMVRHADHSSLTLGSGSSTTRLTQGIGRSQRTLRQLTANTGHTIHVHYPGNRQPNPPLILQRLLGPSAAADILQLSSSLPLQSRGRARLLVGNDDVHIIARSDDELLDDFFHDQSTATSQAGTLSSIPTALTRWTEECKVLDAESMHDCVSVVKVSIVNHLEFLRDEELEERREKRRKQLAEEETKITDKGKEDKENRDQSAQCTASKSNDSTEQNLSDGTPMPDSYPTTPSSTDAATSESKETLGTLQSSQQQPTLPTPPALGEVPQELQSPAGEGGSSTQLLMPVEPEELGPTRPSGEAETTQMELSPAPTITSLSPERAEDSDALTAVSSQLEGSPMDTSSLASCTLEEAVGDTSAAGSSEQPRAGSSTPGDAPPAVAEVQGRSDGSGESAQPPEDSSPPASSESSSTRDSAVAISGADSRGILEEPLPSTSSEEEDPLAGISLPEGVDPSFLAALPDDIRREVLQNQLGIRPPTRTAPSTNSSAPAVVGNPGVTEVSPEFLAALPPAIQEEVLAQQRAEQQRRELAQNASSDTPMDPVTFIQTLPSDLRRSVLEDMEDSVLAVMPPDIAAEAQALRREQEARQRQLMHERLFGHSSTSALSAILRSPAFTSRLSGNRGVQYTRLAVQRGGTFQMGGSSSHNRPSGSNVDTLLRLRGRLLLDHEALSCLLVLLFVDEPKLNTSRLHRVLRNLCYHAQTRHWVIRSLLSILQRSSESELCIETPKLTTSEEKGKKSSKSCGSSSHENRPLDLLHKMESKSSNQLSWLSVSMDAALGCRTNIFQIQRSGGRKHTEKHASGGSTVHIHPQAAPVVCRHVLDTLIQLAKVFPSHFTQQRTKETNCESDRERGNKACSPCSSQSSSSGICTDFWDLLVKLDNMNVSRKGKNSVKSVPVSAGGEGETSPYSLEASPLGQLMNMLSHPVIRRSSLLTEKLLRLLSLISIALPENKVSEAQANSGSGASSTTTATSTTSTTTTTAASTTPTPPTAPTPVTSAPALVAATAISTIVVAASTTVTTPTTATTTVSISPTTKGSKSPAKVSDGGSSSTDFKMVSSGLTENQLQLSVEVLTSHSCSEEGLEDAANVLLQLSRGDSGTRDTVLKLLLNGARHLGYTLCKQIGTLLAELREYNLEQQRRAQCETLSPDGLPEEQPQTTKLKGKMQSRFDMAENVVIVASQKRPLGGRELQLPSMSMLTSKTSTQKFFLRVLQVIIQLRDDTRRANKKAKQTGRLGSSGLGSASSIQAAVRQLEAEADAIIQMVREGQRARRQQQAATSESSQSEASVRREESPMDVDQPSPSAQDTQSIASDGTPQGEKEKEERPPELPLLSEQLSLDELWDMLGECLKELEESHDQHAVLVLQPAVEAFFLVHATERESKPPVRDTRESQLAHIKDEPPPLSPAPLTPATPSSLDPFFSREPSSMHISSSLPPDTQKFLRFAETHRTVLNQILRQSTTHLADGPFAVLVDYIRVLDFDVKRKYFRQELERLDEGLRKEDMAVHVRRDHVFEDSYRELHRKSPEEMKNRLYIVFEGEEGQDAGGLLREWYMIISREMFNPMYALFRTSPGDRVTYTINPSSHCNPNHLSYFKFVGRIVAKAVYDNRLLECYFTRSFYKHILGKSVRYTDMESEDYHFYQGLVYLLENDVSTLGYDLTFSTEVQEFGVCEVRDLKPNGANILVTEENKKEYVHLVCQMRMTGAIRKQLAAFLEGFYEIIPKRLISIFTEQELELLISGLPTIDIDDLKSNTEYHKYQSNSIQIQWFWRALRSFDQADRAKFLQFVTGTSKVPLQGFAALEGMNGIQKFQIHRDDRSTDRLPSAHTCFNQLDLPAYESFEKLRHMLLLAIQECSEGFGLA

These targets were tested with COC(=O)/C=C/c1ccccc1 [methyl cinnamate] (assay: log2 ratio of iodoacetamide-alkyne labeling of the cysteine site, DMSO over compound (competition); higher = stronger covalent engagement of the cysteine by the compound, active = 1 or more). Conditions: 500 µM; treatment time 1 h; system: HEK293T cell lysate.
Method in brief: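 HEK293T lysate at 2 mg/mL was treated with vehicle or electrophile (500 µM) for 1 h at ambient temperature, then labelled with iodoacetamide alkyne (1 h), clicked to sCIP-TMT reagents, pooled, digested with trypsin overnight at 37 °C, enriched on streptavidin and eluted with acid. Peptides were analysed by Orbitrap Eclipse LC-MS/MS with FAIMS and quantified in FragPipe, using duplicate channels and three replicates, with cysteines quantified in only one replicate excluded. The log2 competition ratio for each cysteine is the mean control-channel reporter intensity divided by the mean compound-channel reporter intensity.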

log2 ratio of iodoacetamide-alkyne labeling, inactive:
DHX40 C33 (UniProt Q8IX18) 0.284, RHOT2 C216 (UniProt Q8IXI1) 0.313, HPS6 C695 (UniProt Q86YV9) 0.0423, TSEN54 C338 (UniProt Q7Z6J9) 0.193, VRK3 C191 (UniProt Q8IV63) 0.119, RPUSD2 C246 (UniProt Q8IZ73) -0.234, CCAR1 C579 (UniProt Q8IX12) 0.00252, SND1 C152 (UniProt Q7KZF4) 0.327, KTN1 C303 (UniProt Q86UP2) 0.0565, ERC1 C258 (UniProt Q8IUD2) 0.146, WDR75 C397 (UniProt Q8IWA0) 0.178, UniProt Q86U38_C123 0.0733, DHX30 C346 (UniProt Q7L2E3) 0.215, UniProt Q7Z5K2_C344 0.395, SND1 C826 (UniProt Q7KZF4) 0.164, THNSL1 C82 (UniProt Q8IYQ7) 0.245, CEP97 C484 (UniProt Q8IW35) -0.323, CKAP2L C124 (UniProt Q8IYA6) 0.371, FAM122B C155 (UniProt Q7Z309) 0.348, UniProt Q7RTV0_C40 0.138, MAEA C61 (UniProt Q7L5Y9) 0.00227, LARP4 C599 (UniProt Q71RC2) 0.319, DHX37 C766 (UniProt Q8IY37) 0.114, LUZP1 C594 (UniProt Q86V48) 0.592, ZC3HAV1 C645 (UniProt Q7Z2W4) 0.316, APTX C161 (UniProt Q7Z2E3) 0.182, UniProt Q8IYB1_C16 0.141, SRRM1 C33 (UniProt Q8IYB3) 0.367, SLFN11 C126 (UniProt Q7Z7L1) 0.0381, CYFIP1 C98 (UniProt Q7L576) 0.285, SH3RF1 C658 (UniProt Q7Z6J0) 0.00212, MEPCE C244 (UniProt Q7L2J0) 0.116, SLFN11 C842 (UniProt Q7Z7L1) 0.286, EXOC8 C172 (UniProt Q8IYI6) 0.102, SUPT6H C527 (UniProt Q7KZ85) 0.044, CAND1 C413 (UniProt Q86VP6) 0.393, HUWE1 C3361 (UniProt Q7Z6Z7) 0.47
